Results reported in PubChem BioAssay AID328 (DTP/NCI, 2004).
The list does not hold the whole screen: it is rich in T/C values a quarter to a half above the control, in often repeated tests (any T/C) and in doses without a T/C. Further doses and runs are listed elsewhere. T/C gives the treated animals as a percentage of the vehicle group. Some entries give survivors of the animals treated and no T/C: the source files T/C as zero there, which appears to mark a toxic dose or a test without result, not a measured value. Some survivor counts are full or nearly so, which does not show that the dose was tolerated: the source hardly ever lists a survival T/C far under the control, and the zero likely stands for such cases as well. Survivors were counted at the toxicity check, usually on the fifth day, unless a day is given; later deaths do not show. Schedules are NCI's codes, read here as Q, the interval in days (D) or hours (H), X, the number of doses. Brackets with × count equal records among those shown. Some structures stand for samples that the source files as different forms (salt, stereo form or complex); doses refer to the form tested. For survival time, the PubChem record calls one and a half times the control and up active, and a quarter to a half above the control has no call in these data; cut-offs in other NCI protocols can differ. Some entries hold several experiments; the results are listed from low to high. Some T/C values are followed by the survivors on the day toxicity was checked, most often the fifth; where none is given, no animal had died by that day.

Tested on: BDF1 mice, P388 leukemia ip, median survival T/C
Experiment: NCI In Vivo Anticancer Drug Screen. Data for tumor model P388 Leukemia (intraperitoneal) in B6D2F1 (BDF1) mice
Conditions: T/C endpoint: median survival time, higher T/C = longer survival
Procedure, shortened: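 T/C = treated-group survival ÷ vehicle-control survival; tumour transplanted into mice before dosing.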

[1] = dose: 100.0 mg/kg/injection, schedule: Q04DX003 (ip), vehicle: saline
[2] = dose: 200.0 mg/kg/injection, schedule: Q01DX009 (ip), vehicle: saline with Tween-80
[3] = dose: 400.0 mg/kg/injection, schedule: Q01DX009 (ip), vehicle: saline with Tween-80
[4] = dose: 8.0 mg/kg/injection, schedule: Q01DX009 (ip), vehicle: saline
[5] = dose: 100.0 mg/kg/injection, schedule: Q01DX009 (ip), vehicle: Klucel (hydroxypropylcellulose) (HPC)
[6] = dose: 150.0 mg/kg/injection, schedule: Q01DX009 (ip), vehicle: Klucel (hydroxypropylcellulose) (HPC)
[7] = dose: 100.0 mg/kg/injection, schedule: Q01DX009 (ip), vehicle: saline
[8] = dose: 200.0 mg/kg/injection, schedule: Q01DX009 (ip), vehicle: saline

## COc1ccc2c(Nc3ccc(NS(C)(=O)=O)cc3)c3ccccc3nc2c1
dose: 0.44 mg/kg/injection, schedule: Q01DX009 (ip), vehicle: saline with Tween-80
  T/C: 144 % of control
[1]
  survivor count: 6 of 6
dose: 200.0 mg/kg/injection, schedule: Q04DX003 (ip), vehicle: saline
  survivor count: 6 of 6
dose: 400.0 mg/kg/injection, schedule: Q04DX003 (ip), vehicle: saline
  survivor count: 4 of 6

## CC(C)n1cnc2c(Cl)ncnc21
[2]
  survivor count: 3 of 6
[3]
  survivor count: 4 of 6

## COC1=C(N2CC2)C(=O)C(OC)=C(N2CC2)C1=O
dose: 0.25 mg/kg/injection, schedule: Q01DX009 (ip), vehicle: saline
  T/C: 148 % of control
dose: 1.2 mg/kg/injection, schedule: Q04DX003 (ip), vehicle: saline with Tween-80
  T/C: 133 % of control
dose: 4.0 mg/kg/injection, schedule: Q01DX009 (ip), vehicle: saline with Tween-80
  survivor count: 6 of 6
[4]
  survivor count: 4 of 6

## CN(C)N=Nc1ccccc1C(N)=O
dose: 62.5 mg/kg/injection, schedule: Q01DX009 (ip), vehicle: saline with Tween-80
  T/C: 136 % of control
dose: 125.0 mg/kg/injection, schedule: Q01DX009 (ip), vehicle: saline with Tween-80
  survivor count: 5 of 6
dose: 250.0 mg/kg/injection, schedule: Q01DX009 (ip), vehicle: saline with Tween-80
  survivor count: 0 of 6

## C[n+]1c(-c2cc(Cl)cc(Cl)c2)c2cc([N+](=O)[O-])ccc2c2ccccc21
dose: 100.0 mg/kg/injection, schedule: Q04DX003 (ip), vehicle: water
  T/C: 135 % of control

## CCn1cnc2c(SC)ncnc21
[1]
  survivor count: 6 of 6
dose: 110.0 mg/kg/injection, schedule: Q01DX009 (ip), vehicle: Klucel (hydroxypropylcellulose) (HPC)
  survivor count: 4 of 6
dose: 150.0 mg/kg/injection, schedule: Q04DX003 (ip), vehicle: Klucel (hydroxypropylcellulose) (HPC)
  survivor count: 5 of 6
dose: 170.0 mg/kg/injection, schedule: Q01DX009 (ip), vehicle: Klucel (hydroxypropylcellulose) (HPC)
  survivor count: 2 of 6
dose: 255.0 mg/kg/injection, schedule: Q01DX009 (ip), vehicle: Klucel (hydroxypropylcellulose) (HPC)
  survivor count: 0 of 6
dose: 300.0 mg/kg/injection, schedule: Q04DX003 (ip), vehicle: Klucel (hydroxypropylcellulose) (HPC)
  survivor count: 0 of 6

## COC1CC(OS(=O)(=O)c2ccc(C)cc2)C(O)C(C)O1 (centres undefined)
[3]
  survivor count: 5 of 6 (2×)

## COc1ccccc1NC(=O)c1ccc(Cl)cc1Cl
[5]
  survivor count: 6 of 6

## CCCCOCN(COCCCC)c1ccc(C)cc1
[2]
  survivor count: 0 of 6

## C/C(=N\Nc1nc2ccccc2o1)c1ccncc1
dose: 100.0 mg/kg/injection, schedule: Q04DX003 (ip), vehicle: Klucel (hydroxypropylcellulose) (HPC)
  survivor count: 6 of 6

## CC(C)=CC[P+](CP(c1ccccc1)c1ccccc1)(c1ccccc1)c1ccccc1
dose: 50.0 mg/kg/injection, schedule: Q01DX005 (ip), vehicle: saline with Tween-80
  survivor count: 0 of 6
dose: 100.0 mg/kg/injection, schedule: Q01DX005 (ip), vehicle: saline with Tween-80
  survivor count: 0 of 6
dose: 200.0 mg/kg/injection, schedule: Q01DX005 (ip), vehicle: saline with Tween-80
  survivor count: 0 of 6

## COc1cccc2c1C(=O)c1c(O)c3c(c(O)c1C2=O)CC(O)(/C(C)=N/Nc1ccc(Cl)cc1)CC3OC1CC(N)C(O)C(C)O1 (centres undefined)
dose: 1.47 mg/kg/injection, schedule: Q04DX003 (ip), vehicle: water
  T/C: 133 % of control
dose: 2.45 mg/kg/injection, schedule: Q04DX003 (ip), vehicle: water
  T/C: 148 % of control [7 of 8 alive]

## CCOC(=O)CC(COC)C(C(=O)OCC)C(=O)OCC (centres undefined)
dose: 400.0 mg/kg/injection, schedule: Q01DX009 (ip), vehicle: other
  survivor count: 6 of 6

## CC1(O)CCC2C3CCC4=CC(=O)CCC4C3CCC21C (centres undefined)
dose: 50.0 mg/kg/injection, schedule: Q01DX009 (ip), vehicle: Klucel (hydroxypropylcellulose) (HPC)
  survivor count: 6 of 6
dose: 66.0 mg/kg/injection, schedule: Q01DX009 (ip), vehicle: Klucel (hydroxypropylcellulose) (HPC)
  survivor count: 6 of 6
[5]
  T/C: 95, 104, 110, 127 % of control
  survivor count: 6 of 6
[6]
  T/C: 100, 107, 110 % of control
  survivor count: 5 of 6
dose: 400.0 mg/kg/injection, schedule: Q04DX003 (ip), vehicle: other
  survivor count: 0 of 6

## CCCCCCCCC[N+]12CC[N+](CCCCCCCCC)(CC1)CC2
dose: 50.0 mg/kg/injection, schedule: Q01DX009 (ip), vehicle: saline
  survivor count: 0 of 6
[7]
  survivor count: 0 of 6
[8]
  survivor count: 0 of 6

## c1cc[c]([Pb]([c]2ccccc2)([c]2ccccc2)[n]2cccc2)cc1
dose: 85.0 mg/kg/injection, schedule: Q04DX003 (ip), vehicle: Klucel (hydroxypropylcellulose) (HPC)
  T/C: 127 % of control

## CC[C@@]1(O)C[C@H](OC2CC(N(C)C)C(O)C(C)O2)c2c(cc3c(c2O)C(=O)c2c(O)ccc(O)c2C3=O)[C@H]1C(=O)OC (some centres undefined)
dose: 4.32 mg/kg/injection, schedule: Q04DX003 (ip), vehicle: other
  T/C: 128 % of control
dose: 7.2 mg/kg/injection, schedule: Q04DX003 (ip), vehicle: other
  T/C: 140 % of control
dose: 12.0 mg/kg/injection, schedule: Q04DX003 (ip), vehicle: other
  T/C: 146 % of control

## CCCCCC[P+](c1ccccc1)(c1ccccc1)c1ccccc1
dose: 25.0 mg/kg/injection, schedule: Q01DX009 (ip), vehicle: saline
  survivor count: 3 of 6
dose: 25.0 mg/kg/injection, schedule: Q04DX003 (ip), vehicle: saline
  survivor count: 4 of 6

## CN(C)c1ncnc2nsnc12
dose: 150.0 mg/kg/injection, schedule: Q04DX003 (ip), vehicle: saline with Tween-80
  survivor count: 2 of 6
dose: 300.0 mg/kg/injection, schedule: Q04DX003 (ip), vehicle: saline with Tween-80
  survivor count: 0 of 6

## O=C(O)c1c2c(nc3ccccc13)Cc1ccccc1-2
dose: 50.0 mg/kg/injection, schedule: Q01DX009 (ip), vehicle: water
  T/C: 125 % of control
[7]
  T/C: 128 % of control
[8]
  survivor count: 0 of 6
dose: 200.0 mg/kg/injection, schedule: Q01DX009 (ip), vehicle: water
  survivor count: 4 of 6
dose: 300.0 mg/kg/injection, schedule: Q01DX009 (ip), vehicle: Klucel (hydroxypropylcellulose) (HPC)
  survivor count: 4 of 6
dose: 300.0 mg/kg/injection, schedule: Q01DX009 (ip), vehicle: saline
  survivor count: 0 of 6
dose: 400.0 mg/kg/injection, schedule: Q01DX009 (ip), vehicle: water
  survivor count: 0 of 6

## Cc1n(CC(C)C)c2c([n+]1C)C(=O)c1ccccc1C2=O
dose: 2.0 mg/kg/injection, schedule: Q01DX010 (ip), vehicle: saline
  survivor count: 6 of 6
dose: 4.0 mg/kg/injection, schedule: Q01DX009 (ip), vehicle: saline
  survivor count: 0 of 6
dose: 4.0 mg/kg/injection, schedule: Q01DX010 (ip), vehicle: saline
  survivor count: 0 of 6
[4]
  survivor count: 0 of 6
dose: 8.0 mg/kg/injection, schedule: Q01DX010 (ip), vehicle: saline
  survivor count: 0 of 6

## O=C([O][Hg][CH2]C1COC([CH2][Hg][O]C(=O)c2ccccc2)CO1)c1ccccc1 (centres undefined)
dose: 200.0 mg/kg/injection, schedule: Q04DX003 (ip), vehicle: saline with Tween-80
  survivor count: 2 of 6
dose: 400.0 mg/kg/injection, schedule: Q04DX003 (ip), vehicle: saline with Tween-80
  survivor count: 0 of 6

## CC1(C)N=C(N)N=C(N)N1c1ccc(C(N)=O)cc1
dose: 200.0 mg/kg/injection, schedule: Q01DX005 (ip), vehicle: Klucel (hydroxypropylcellulose) (HPC)
  T/C: 127 % of control [5 of 6 alive]

## Clc1ccc(CSc2ncnc3nc[nH]c23)cc1
[3]
  survivor count: 0 of 6
